# Source: paper doi:10.1101/2023.10.24.563883
# Amino acid sequences for entries named in this document (tags omitted). Residues count along the entry.
# UniProt Q99PJ1, residues 27-1943: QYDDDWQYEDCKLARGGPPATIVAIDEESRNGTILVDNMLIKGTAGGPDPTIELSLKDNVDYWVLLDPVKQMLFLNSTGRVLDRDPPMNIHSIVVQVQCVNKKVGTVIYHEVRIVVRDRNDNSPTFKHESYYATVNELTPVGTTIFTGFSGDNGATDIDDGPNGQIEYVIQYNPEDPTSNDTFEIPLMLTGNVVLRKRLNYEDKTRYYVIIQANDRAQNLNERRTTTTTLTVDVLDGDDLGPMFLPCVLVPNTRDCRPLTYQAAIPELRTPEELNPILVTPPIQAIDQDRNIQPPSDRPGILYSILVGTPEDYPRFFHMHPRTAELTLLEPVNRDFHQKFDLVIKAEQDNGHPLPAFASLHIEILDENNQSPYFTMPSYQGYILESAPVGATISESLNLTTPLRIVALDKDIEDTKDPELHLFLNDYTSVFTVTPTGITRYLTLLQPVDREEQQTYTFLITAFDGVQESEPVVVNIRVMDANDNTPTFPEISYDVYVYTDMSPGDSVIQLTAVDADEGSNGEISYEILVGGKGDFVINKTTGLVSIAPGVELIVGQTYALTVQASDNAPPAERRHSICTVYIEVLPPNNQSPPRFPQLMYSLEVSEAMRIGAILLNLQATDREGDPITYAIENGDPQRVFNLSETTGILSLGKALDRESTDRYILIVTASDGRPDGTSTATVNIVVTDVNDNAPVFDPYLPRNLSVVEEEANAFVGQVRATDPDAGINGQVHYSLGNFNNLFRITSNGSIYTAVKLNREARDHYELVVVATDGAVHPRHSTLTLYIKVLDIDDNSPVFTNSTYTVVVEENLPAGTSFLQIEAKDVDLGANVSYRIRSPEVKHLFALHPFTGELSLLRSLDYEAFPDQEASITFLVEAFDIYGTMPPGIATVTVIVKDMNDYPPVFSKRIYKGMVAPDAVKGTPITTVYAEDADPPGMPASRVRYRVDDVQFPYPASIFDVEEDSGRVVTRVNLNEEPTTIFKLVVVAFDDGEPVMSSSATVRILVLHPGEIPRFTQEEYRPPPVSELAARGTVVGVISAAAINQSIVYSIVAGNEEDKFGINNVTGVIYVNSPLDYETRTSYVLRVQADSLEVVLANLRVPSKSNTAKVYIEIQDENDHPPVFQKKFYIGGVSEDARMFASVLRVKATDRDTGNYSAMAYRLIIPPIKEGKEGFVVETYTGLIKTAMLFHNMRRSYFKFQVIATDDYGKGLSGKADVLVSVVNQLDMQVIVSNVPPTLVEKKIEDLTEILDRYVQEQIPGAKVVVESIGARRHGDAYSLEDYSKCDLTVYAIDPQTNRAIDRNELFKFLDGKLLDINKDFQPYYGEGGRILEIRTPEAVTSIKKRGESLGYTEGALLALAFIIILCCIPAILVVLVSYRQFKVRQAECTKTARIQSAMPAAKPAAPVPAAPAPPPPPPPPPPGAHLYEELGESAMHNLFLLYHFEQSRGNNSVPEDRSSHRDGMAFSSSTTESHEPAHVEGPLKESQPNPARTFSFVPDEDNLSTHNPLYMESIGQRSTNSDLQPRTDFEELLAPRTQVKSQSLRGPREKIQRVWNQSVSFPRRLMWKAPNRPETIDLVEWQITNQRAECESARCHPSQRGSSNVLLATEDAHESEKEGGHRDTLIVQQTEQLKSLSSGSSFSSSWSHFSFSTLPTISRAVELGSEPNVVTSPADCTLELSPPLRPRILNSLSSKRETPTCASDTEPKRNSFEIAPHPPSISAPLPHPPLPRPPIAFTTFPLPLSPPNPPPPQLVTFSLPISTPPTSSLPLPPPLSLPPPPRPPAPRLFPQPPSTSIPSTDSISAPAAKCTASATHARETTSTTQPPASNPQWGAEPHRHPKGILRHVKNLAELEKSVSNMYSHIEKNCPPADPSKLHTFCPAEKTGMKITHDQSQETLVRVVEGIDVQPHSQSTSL
# These are yes or no findings as the source states them, for the method shown. Binding seen in cells or lysates may run through a third protein. Some entries that bind do so weakly or less than the wild type.
# B1: TMC1 (endogenous, mouse cochlea) (protein, UniProt Q8R4P5 1-757)
# chain: MLQIQVEEKEEDTEESSSEEEEDKLPRRESLRPKRKRTRDVINEDDPEPEPEDEETRKAREKERRRRLRRGAEEEEEIDEEELERLKALLDENRQMIATVKCKPWKMEKKIEVLKEAKKFVSENEGALGKGKGKKWFAFKMMMAKKWAKFLRDFENFKAACVPWENKIKAIESQFGSSVASYFLFLRWMYGVNMVLFVLTFSLIMLPEYLWGLPYGSLPRKTVPRAEEASAANFGVLYDFNGLAQYSVLFYGYYDNKRTIGWLNFRLPLSYFLVGIMCIGYSFLVVLKAMTKNIGDDGGGDDNTFNFSWKVFCSWDYLIGNPETADNKFNSITMNFKEAIIEERAAQVEENIHLIRFLRFLANFFVFLTLGASGYLIFWAVKRSQEFAQQDPDTLGWWEKNEMNMVMSLLGMFCPTLFDLFAELEDYHPLIALKWLLGRIFALLLGNLYVFILALMDEINNKIEEEKLVKANITLWEANMIKAYNESLSGLSGNTTGAPFFVHPADVPRGPCWETMVGQEFVRLTVSDVLTTYVTILIGDFLRACFVRFCNYCWCWDLEYGYPSYTEFDISGNVLALIFNQGMIWMGSFFAPSLPGINILRLHTSMYFQCWAVMCCNVPEARVFKASRSNNFYLGMLLLILFLSTMPVLYMIVSLPPSFDCGPFSGKNRMFEVIGETLEHDFPSWMAKILRQLSNPGLVIAVILVMVLTIYYLNATAKGQKAANLDLKKKMKQQALENKMRNKKMAAARAAAAAGGQ
# B2: TMIE (endogenous, mouse cochlea) (protein, UniProt Q8K467 29-153)
# chain: QLVEPSTAPPKPKPPPLTKETVVFWDMRLWHVVGIFSLFVLSIIITLCCVFNCRVPRTRKEIEARYLQRKAAKMYTDKLETVPPLNELTEIPGEDKKKKKKDSVDTVAIKVEEDEKNEAKKKGEK
# Biological target: T1, LPHN2 (endogenous, mouse cochlea) (mouse (endogenous in cochlea)) (UniProt Q8JZZ7)
# T1 sequence: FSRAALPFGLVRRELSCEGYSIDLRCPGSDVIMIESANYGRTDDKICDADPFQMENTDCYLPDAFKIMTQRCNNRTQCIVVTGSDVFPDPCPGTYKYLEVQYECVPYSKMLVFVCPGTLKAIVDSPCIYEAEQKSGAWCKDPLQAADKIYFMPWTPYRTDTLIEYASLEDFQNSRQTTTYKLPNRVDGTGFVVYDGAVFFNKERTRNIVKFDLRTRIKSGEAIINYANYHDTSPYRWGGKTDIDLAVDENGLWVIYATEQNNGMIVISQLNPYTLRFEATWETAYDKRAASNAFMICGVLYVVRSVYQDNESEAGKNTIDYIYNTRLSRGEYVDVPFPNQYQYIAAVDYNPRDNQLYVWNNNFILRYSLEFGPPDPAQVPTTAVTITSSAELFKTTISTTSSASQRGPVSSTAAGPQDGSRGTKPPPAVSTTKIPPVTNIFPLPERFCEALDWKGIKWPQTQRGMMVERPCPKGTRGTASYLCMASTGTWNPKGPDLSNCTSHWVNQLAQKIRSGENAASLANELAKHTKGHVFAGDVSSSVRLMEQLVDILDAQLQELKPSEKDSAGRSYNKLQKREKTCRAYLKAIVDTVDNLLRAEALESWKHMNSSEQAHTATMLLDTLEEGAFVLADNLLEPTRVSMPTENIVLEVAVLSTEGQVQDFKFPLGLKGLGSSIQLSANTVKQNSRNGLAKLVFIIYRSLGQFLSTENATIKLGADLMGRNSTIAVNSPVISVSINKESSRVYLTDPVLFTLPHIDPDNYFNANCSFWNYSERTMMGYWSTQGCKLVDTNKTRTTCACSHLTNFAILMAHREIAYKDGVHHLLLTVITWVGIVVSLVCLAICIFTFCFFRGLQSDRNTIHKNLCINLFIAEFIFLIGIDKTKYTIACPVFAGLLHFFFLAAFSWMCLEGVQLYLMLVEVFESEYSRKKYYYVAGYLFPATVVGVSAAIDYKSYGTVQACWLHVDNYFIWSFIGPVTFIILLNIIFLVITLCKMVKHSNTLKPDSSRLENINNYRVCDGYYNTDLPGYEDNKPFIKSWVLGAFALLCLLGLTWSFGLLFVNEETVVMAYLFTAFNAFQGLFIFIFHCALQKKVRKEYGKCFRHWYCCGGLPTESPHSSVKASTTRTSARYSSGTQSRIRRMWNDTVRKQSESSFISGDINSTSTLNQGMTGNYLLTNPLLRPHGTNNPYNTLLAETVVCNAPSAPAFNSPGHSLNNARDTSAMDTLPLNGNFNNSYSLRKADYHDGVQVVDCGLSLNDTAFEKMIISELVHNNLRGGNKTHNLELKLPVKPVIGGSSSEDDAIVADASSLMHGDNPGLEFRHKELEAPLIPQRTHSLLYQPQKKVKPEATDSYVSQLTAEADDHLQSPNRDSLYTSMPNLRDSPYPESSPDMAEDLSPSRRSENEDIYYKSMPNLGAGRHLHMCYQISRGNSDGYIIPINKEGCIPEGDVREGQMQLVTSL
# Assay: co-IP
row,Molecule,binding
1,"PCDH15 (endogenous, mouse cochlea) (from UniProt Q99PJ1 27-1943)",binds
2,B1,binds
3,B2,binds
